Source: the supplement of paper PMC4604168 (melanoma cell lines)
This is one part of the list. Repeats are few or missing, and single values can be far off.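 Imaging used 1,536-well plates; nuclei positive for cleaved PARP by antibody were divided by total DNA-stained nuclei to yield the apoptosis fraction. Doses for screening kept most cells viable, and cell lines differ markedly in resting and induced cleaved-PARP levels.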

How the values were obtained:
Assay in all cases: cleaved PARP positive nuclei fraction relative to DMSO control; melanoma cells; higher = more apoptosis
Settings in all cases: library dose: low library concentration; 72 h
[1] = system: CBRC034 (line from a melanoma biopsy)
[2] = system: COLO792
[3] = system: COLO800
[4] = system: COLO829
[5] = system: G361
[6] = system: IPC-298
[7] = system: IST-MEL1
[8] = system: LB2518-MEL
[9] = system: LOXIMVI
[10] = system: MEL-HO

Row | Structure (SMILES) | cleaved PARP positive nuclei fraction [1] | cleaved PARP positive nuclei fraction [2] | cleaved PARP positive nuclei fraction [3] | cleaved PARP positive nuclei fraction [4] | cleaved PARP positive nuclei fraction [5] | cleaved PARP positive nuclei fraction [6] | cleaved PARP positive nuclei fraction [7] | cleaved PARP positive nuclei fraction [8] | cleaved PARP positive nuclei fraction [9] | cleaved PARP positive nuclei fraction [10]
1 | C[C@]1(O)C[C@@H](c2nc(-c3ccc4ccc(-c5ccccc5)nc4c3)c3c(N)nccn32)C1 + CNC(=O)c1cc(Oc2ccc(NC(=O)Nc3ccc(Cl)c(C(F)(F)F)c3)cc2)ccn1 [sorafenib] (first compound 0.4 µM, partner dose 0.4 µM) | 68.4% | 116% | 144% | 111% | 106% | 92.1% | 35.1% | 52% | 15.1% | 116%
2 | NC1(c2ccc(-c3nc4ccn5c(=O)[nH]nc5c4cc3-c3ccccc3)cc2)CCC1 + Cn1nnc2c(C(N)=O)ncn2c1=O [temozolomide] (first compound 0.4 µM, partner dose 2 µM) | 120% | 37.2% | 32.7% | 38.7% | 93% | 88.5% | 261% | 107% | 128% | 132%
3 | C[C@@H](N)c1ccc(C(=O)Nc2ccnc3[nH]ccc23)cc1 + O=C(O)[C@@H]1[O][Sb](=[O])([O][Sb]2(=[O])[O][C@H]([C@H](O)CO)[C@H](O)[C@H](C(=O)O)[O]2)[O][C@H]([C@H](O)CO)[C@@H]1O [stibogluconate] (first compound 0.4 µM, partner dose 2 µM) | 148% | 86.4% | 146% | 60.2% | 121% | 39.8% | 64.6% | 46.5% | 148% | 93.3%
4 | C[C@@H](N)c1ccc(C(=O)Nc2ccnc3[nH]ccc23)cc1 + NC(=O)c1ccc(N(C(N)=O)c2c(F)cccc2F)nc1-c1ccc(F)cc1F [VX702] (first compound 0.4 µM, partner dose 0.4 µM) | 164% | 151% | 126% | 117% | 163% | 220% | 64.2% | 83.5% | 114% | 80.2%
5 | Cn1cnc2c(F)c(Nc3ccc(Br)cc3Cl)c(C(=O)NOCCO)cc21 [selumetinib] + C[C@]1(O)C[C@@H](c2nc(-c3ccc4ccc(-c5ccccc5)nc4c3)c3c(N)nccn32)C1 [OSI906] (first compound 0.015 µM, partner dose 0.4 µM) | 335% | 122% | 98.9% | 109% | 170% | 126% | 107% | 225% | 30.4% | 44.2%
6 | NC(=O)c1ccc(N(C(N)=O)c2c(F)cccc2F)nc1-c1ccc(F)cc1F + OCc1c[nH]c2ccccc12 [Indole-3-carbinol] (first compound 0.4 µM, partner dose 0.8 µM) | 69% | 145% | 174% | 99.3% | 92.8% | 118% | 128% | 81.4% | 168% | 68.8%
7 | Cn1cnc2c(F)c(Nc3ccc(Br)cc3Cl)c(C(=O)NOCCO)cc21 [selumetinib] + COc1ccc(C2=N[C@@H](c3ccc(Cl)cc3)[C@@H](c3ccc(Cl)cc3)N2C(=O)N2CCNC(=O)C2)c(OC(C)C)c1 [Nutlin-3] (first compound 0.015 µM, partner dose 0.1 µM) | 224% | 98% | 103% | 107% | 122% | 135% | 97.4% | 356% | 181% | 91.4%
8 | Cn1sc(=O)n(Cc2ccccc2)c1=O + OCc1c[nH]c2ccccc12 [Indole-3-carbinol] (first compound 0.4 µM, partner dose 0.8 µM) | 48.8% | 65.5% | 40.1% | 132% | 50.6% | 40.8% | 52.1% | 104% | 87.3% | 20.2%
9 | C[C@@H](N)c1ccc(C(=O)Nc2ccnc3[nH]ccc23)cc1 + Cn1cnc2c(F)c(Nc3ccc(Br)cc3Cl)c(C(=O)NOCCO)cc21 [selumetinib] (first compound 0.4 µM, partner dose 0.015 µM) | 149% | 195% | 58.5% | 178% | 126% | 91.6% | 64.4% | 190% | 45.3% | 133%
10 | NC1(c2ccc(-c3nc4ccn5c(=O)[nH]nc5c4cc3-c3ccccc3)cc2)CCC1 + C=CCNC1=C2C[C@@H](C)C[C@H](OC)[C@H](O)[C@@H](C)/C=C(\C)[C@H](OC(N)=O)[C@@H](OC)/C=C\C=C(/C)C(=O)NC(=CC1=O)C2=O [Tanespimycin] (first compound 0.4 µM, partner dose 0.002 µM) | 157% | 196% | 109% | 78.7% | 276% | 82% | 268% | 99.4% | 106% | 66.9%
11 | CCCCCCCCc1ccc(CCC(N)(CO)CO)cc1 [fingolimod] + CC(=O)c1c(C)c2cnc(Nc3ccc(N4CCNCC4)cn3)nc2n(C2CCCC2)c1=O [palbociclib] (first compound 2 µM, partner dose 0.04 µM) | 37.2% | 121% | 81.3% | 37.9% | 142% | 91.3% | 210% | 238% | 120% | 134%
12 | CCN(CC)CCNC(=O)c1c(C)[nH]c(/C=C2\C(=O)Nc3ccc(F)cc32)c1C [sunitinib] + CN1CCN(c2ccc3nc(-c4c(N)c5c(F)cccc5[nH]c4=O)[nH]c3c2)CC1 [Dovitinib] (first compound 0.4 µM, partner dose 0.1 µM) | 155% | 63.5% | 81.7% | 153% | 117% | 101% | 31.2% | 128% | 91.8% | 72.4%
13 | CN(c1ncccc1CNc1nc(Nc2ccc3c(c2)CC(=O)N3)ncc1C(F)(F)F)S(C)(=O)=O + Cn1c(Nc2ccc(C(F)(F)F)cc2)nc2cc(Oc3ccnc(-c4ncc(C(F)(F)F)[nH]4)c3)ccc21 [CHIR265] (first compound 0.08 µM, partner dose 0.08 µM) | 109% | 188% | 88.5% | 132% | 192% | 64.9% | 78.8% | 349% | 163% | 28.3%
14 | NC(=O)c1ccc(N(C(N)=O)c2c(F)cccc2F)nc1-c1ccc(F)cc1F + CC(=O)O[C@@]12CO[C@@H]1C[C@H](O)[C@@]1(C)C(=O)[C@H](O)C3=C(C)[C@@H](OC(=O)[C@H](O)[C@@H](NC(=O)OC(C)(C)C)c4ccccc4)C[C@@](O)([C@@H](OC(=O)c4ccccc4)[C@H]21)C3(C)C [Docetaxel] (first compound 0.4 µM, partner dose 0.0001 µM) | 108% | 450% | 97.1% | 190% | 614% | 168% | 290% | 370% | 121% | 140%
15 | NC1(c2ccc(-c3nc4ccn5c(=O)[nH]nc5c4cc3-c3ccccc3)cc2)CCC1 + C[C@]1(c2nc3c(C(N)=O)cccc3[nH]2)CCCN1 [Veliparib] (first compound 0.4 µM, partner dose 1.4 µM) | 31.6% | 98.3% | 74.6% | 183% | 136% | 89.4% | 64% | 104% | 128% | 137%
16 | NC1(c2ccc(-c3nc4ccn5c(=O)[nH]nc5c4cc3-c3ccccc3)cc2)CCC1 + O=C(O)[C@@H]1[O][Sb](=[O])([O][Sb]2(=[O])[O][C@H]([C@H](O)CO)[C@H](O)[C@H](C(=O)O)[O]2)[O][C@H]([C@H](O)CO)[C@@H]1O [stibogluconate] (first compound 0.4 µM, partner dose 2 µM) | 112% | 77.3% | 149% | 79% | 102% | 112% | 135% | 182% | 120% | 118%
17 | C[C@]1(O)C[C@@H](c2nc(-c3ccc4ccc(-c5ccccc5)nc4c3)c3c(N)nccn32)C1 + O=C(O)c1ccc2c(c1)nc(Nc1cccc(Cl)c1)c1ccncc12 [CX4945] (first compound 0.4 µM, partner dose 0.4 µM) | 67.2% | 85.1% | 194% | 40% | 89.1% | 273% | 108% | 429% | 53.8% | 64.1%
18 | NC(=O)c1ccc(N(C(N)=O)c2c(F)cccc2F)nc1-c1ccc(F)cc1F + Cn1nnc2c(C(N)=O)ncn2c1=O [temozolomide] (first compound 0.4 µM, partner dose 2 µM) | 32.7% | 109% | 117% | 162% | 131% | 85.1% | 146% | 112% | 33.9% | 267%
19 | CCN(CC)CCNC(=O)c1c(C)[nH]c(/C=C2\C(=O)Nc3ccc(F)cc32)c1C [sunitinib] + C=C(c1ccc(C(=O)O)cc1)c1cc2c(cc1C)C(C)(C)CCC2(C)C [Bexarotene] (first compound 0.4 µM, partner dose 2 µM) | 114% | 91.2% | 227% | 95.1% | 136% | 51.9% | 246% | 188% | 55.1% | 165%
20 | C[C@@H](N)c1ccc(C(=O)Nc2ccnc3[nH]ccc23)cc1 + Nc1nc(F)nc2c1ncn2[C@@H]1O[C@H](CO)[C@@H](O)[C@@H]1O [fludarabine] (first compound 0.4 µM, partner dose 0.2 µM) | 24.7% | 125% | 52.1% | 35.9% | 122% | 128% | 63.7% | 39.9% | 131% | 106%
21 | CCN(CC)CCNC(=O)c1c(C)[nH]c(/C=C2\C(=O)Nc3ccc(F)cc32)c1C [sunitinib] + CC(=O)O[C@@]12CO[C@@H]1C[C@H](O)[C@@]1(C)C(=O)[C@H](O)C3=C(C)[C@@H](OC(=O)[C@H](O)[C@@H](NC(=O)OC(C)(C)C)c4ccccc4)C[C@@](O)([C@@H](OC(=O)c4ccccc4)[C@H]21)C3(C)C [Docetaxel] (first compound 0.4 µM, partner dose 0.0001 µM) | 180% | 271% | 320% | 219% | 482% | 196% | 137% | 172% | 187% | 186%

Reformatted in markdown: part of the list above.

| Row | Structure (SMILES) | cleaved PARP positive nuclei fraction [1] | cleaved PARP positive nuclei fraction [2] | cleaved PARP positive nuclei fraction [3] | cleaved PARP positive nuclei fraction [4] | cleaved PARP positive nuclei fraction [5] | cleaved PARP positive nuclei fraction [6] | cleaved PARP positive nuclei fraction [7] | cleaved PARP positive nuclei fraction [8] | cleaved PARP positive nuclei fraction [9] | cleaved PARP positive nuclei fraction [10] |
| --- | --- | --- | --- | --- | --- | --- | --- | --- | --- | --- | --- |
| 1 | C[C@]1(O)C[C@@H](c2nc(-c3ccc4ccc(-c5ccccc5)nc4c3)c3c(N)nccn32)C1 + CNC(=O)c1cc(Oc2ccc(NC(=O)Nc3ccc(Cl)c(C(F)(F)F)c3)cc2)ccn1 [sorafenib] (first compound 0.4 µM, partner dose 0.4 µM) | 68.4% | 116% | 144% | 111% | 106% | 92.1% | 35.1% | 52% | 15.1% | 116% |
| 2 | NC1(c2ccc(-c3nc4ccn5c(=O)[nH]nc5c4cc3-c3ccccc3)cc2)CCC1 + Cn1nnc2c(C(N)=O)ncn2c1=O [temozolomide] (first compound 0.4 µM, partner dose 2 µM) | 120% | 37.2% | 32.7% | 38.7% | 93% | 88.5% | 261% | 107% | 128% | 132% |
